Results are given in words; binding and its absence hold for the method and conditions named. In cells and extracts the contact can be indirect. A yes stands for co-enrichment or nearness to the bait. Other partners may have been found.
B1: TBC1D10B (protein, UniProt Q4KMP7 1-808)
chain: METGTAPLVAPPRRHGAPAAPSPPPRGSRAGPVVVVAPGPPVTTATSAPVTLVAPGEARPAWVPGSAETSAPAPAPAPAPAPAVTGSTVVVLTLEASPEAPKPQLPSGPESPEPAAVAGVETSRALAAGADSPKTEEARPSPAPGPGTPTGTPTRTPSRTAPGALTAKPPLAPKPGTTVASGVTARSASGQVTGGHGAAAATSASAGQAPEDPSGPGTGPSGTCEAPVAVVTVTPAPEPAENSQDLGSTSSLGPGISGPRGQAPDTLSYLDSVSLMSGTLESLADDVSSMGSDSEINGLALRKTDKYGFLGGSQYSGSLESSIPVDVARQRELKWLDMFSNWDKWLSRRFQKVKLRCRKGIPSSLRAKAWQYLSNSKELLEQNPGKFEELERAPGDPKWLDVIEKDLHRQFPFHEMFAARGGHGQQDLYRILKAYTIYRPDEGYCQAQAPVAAVLLMHMPAEQAFWCLVQICDKYLPGYYSAGLEAIQLDGEIFFALLRRASPLAHRHLRRQRIDPVLYMTEWFMCIFARTLPWASVLRVWDMFFCEGVKIIFRVALVLLRHTLGSVEKLRSCQGMYETMEQLRNLPQQCMQEDFLVHEVTNLPVTEALIERENAAQLKKWRETRGELQYRPSRRLHGSRAIHEERRRQQPPLGPSSSLLSLPGLKSRGSRAAGGAPSPPPPVRRASAGPAPGPVVTAEGLHPSLPSPTGNSTPLGSSKETRKQEKERQKQEKERQKQEKEREKERQKQEKEREKQEKEREKQEKERQKQEKKAQGRKLSLRRKADGPPGPHDGGDRPSAEARQDAYF
B2: PLEKHA7 (protein, UniProt Q6IQ23 1-1121)
chain: MAAATVGRDTLPEHWSYGVCRDGRVFFINDQLRCTTWLHPRTGEPVNSGHMIRSDLPRGWEEGFTEEGASYFIDHNQQTTAFRHPVTGQFSPENSEFILQEEPNPHMSKQDRNQRPSSMVSETSTAGTASTLEAKPGPKIIKSSSKVHSFGKRDQAIRRNPNVPVVVRGWLHKQDSSGMRLWKRRWFVLADYCLFYYKDSREEAVLGSIPLPSYVISPVAPEDRISRKYSFKAVHTGMRALIYNSSTAGSQAEQSGMRTYYFSADTQEDMNAWVRAMNQAAQVLSRSSLKRDMEKVERQAVPQANHTESCHECGRVGPGHTRDCPHRGHDDIVNFERQEQEGEQYRSQRDPLEGKRDRSKARSPYSPAEEDALFMDLPTGPRGQQAQPQRAEKNGMLPASYGPGEQNGTGGYQRAFPPRTNPEKHSQRKSNLAQVEHWARAQKGDSRSLPLDQTLPRQGPGQSLSFPENYQTLPKSTRHPSGGSSPPPRNLPSDYKYAQDRASHLKMSSEERRAHRDGTVWQLYEWQQRQQFRHGSPTAPICLGSPEFTDQGRSRSMLEVPRSISVPPSPSDIPPPGPPRVFPPRRPHTPAERVTVKPPDQRRSVDISLGDSPRRARGHAVKNSSHVDRRSMPSMGYMTHTVSAPSLHGKSADDTYLQLKKDLEYLDLKMTGRDLLKDRSLKPVKIAESDTDVKLSIFCEQDRVLQDLEDKIRALKENKDQLESVLEVLHRQMEQYRDQPQHLEKIAYQQKLLQEDLVHIRAELSRESTEMENAWNEYLKLENDVEQLKQTLQEQHRRAFFFQEKSQIQKDLWRIEDVTAGLSANKENFRILVESVKNPERKTVPLFPHPPVPSLSTSESKPPPQPSPPTSPVRTPLEVRLFPQLQTYVPYRPHPPQLRKVTSPLQSPTKAKPKVEDEAPPRPPLPELYSPEDQPPAVPPLPREATIIRHTSVRGLKRQSDERKRDRELGQCVNGDSRVELRSYVSEPELATLSGDMAQPSLGLVGPESRYQTLPGRGLSGSTSRLQQSSTIAPYVTLRRGLNAESSKATFPRPKSALERLYSGDHQRGKMSAEEQLERMKRHQKALVRERKRTLGQGERTGLPSSRYLSRPLPGDLGSVC
B3: FGD6 (protein, UniProt Q6ZV73 1-1430)
chain: MTSAAEIKKPPVAPKPKFVVANNKPAPPPIAPKPDIVISSVPQSTKKMKPAIAPKPKVLKTSPVREIGQSPSRKIMLNLEGHKQELAESTDNFNCKYEGNQSNDYISPMCSCSSECIHKLGHRENLCVKQLVLEPLEMNENLENSKIDETLTIKTRSKCDLYGEKAKNQGGVVLKASVLEEELKDALIHQMPPFISAQKHRPTDSPEMNGGCNSNGQFRIEFADLSPSPSSFEKVPDHHSCHLQLPSDECEHFETCQDDSEKSNNCFQSSELEALENGKRSTLISSDGVSKKSEVKDLGPLEIHLVPYTPKFPTPKPRKTRTARLLRQKCVDTPSESTEEPGNSDSSSSCLTENSLKINKISVLHQNVLCKQEQVDKMKLGNKSELNMESNSDAQDLVNSQKAMCNETTSFEKMAPSFDKDSNLSSDSTTVDGSSMSLAVDEGTGFIRCTVSMSLPKQLKLTCNEHLQSGRNLGVSAPQMQKESVIKEENSLRIVPKKPQRHSLPATGVLKKAASEELLEKSSYPSSEEKSSEKSLERNHLQHLCAQNRGVSSSFDMPKRASEKPVWKLPHPILPFSGNPEFLKSVTVSSNSEPSTALTKPRAKSLSAMDVEKCTKPCKDSTKKNSFKKLLSMKLSICFMKSDFQKFWSKSSQLGDTTTGHLSSGEQKGIESDWQGLLVGEEKRSKPIKAYSTENYSLESQKKRKKSRGQTSAANGLRAESLDDQMLSRESSSQAPYKSVTSLCAPEYENIRHYEEIPEYENLPFIMAIRKTQELEWQNSSSMEDADANVYEVEEPYEAPDGQLQLGPRHQHSSSGASQEEQNDLGLGDLPSDEEEIINSSDEDDVSSESSKGEPDPLEDKQDEDNGMKSKVHHIAKEIMSSEKVFVDVLKLLHIDFRDAVAHASRQLGKPVIEDRILNQILYYLPQLYELNRDLLKELEERMLHWTEQQRIADIFVKKGPYLKMYSTYIKEFDKNIALLDEQCKKNPGFAAVVREFEMSPRCANLALKHYLLKPVQRIPQYRLLLTDYLKNLIEDAGDYRDTQDALAVVIEVANHANDTMKQGDNFQKLMQIQYSLNGHHEIVQPGRVFLKEGILMKLSRKVMQPRMFFLFNDALLYTTPVQSGMYKLNNMLSLAGMKVRKPTQEAYQNELKIESVERSFILSASSATERDEWLEAISRAIEEYAKKRITFCPSRSLDEADSENKEEVSPLGSKAPIWIPDTRATMCMICTSEFTLTWRRHHCRACGKIVCQACSSNKYGLDYLKNQPARVCEHCFQELQKLDHQHSPRIGSPGNHKSPSSALSSVLHSIPSGRKQKKIPAALKEVSANTEDSSMSGYLYRSKGNKKPWKHFWFVIKNKVLYTYAASEDVAALESQPLLGFTVIQVKDENSESKVFQLLHKNMLFYVFKAEDAHSAQKWIEAFQEGTIL
B4: NUMBL (protein, UniProt Q9Y6R0 1-609)
chain: MSRSAAASGGPRRPERHLPPAPCGAPGPPETCRTEPDGAGTMNKLRQSLRRRKPAYVPEASRPHQWQADEDAVRKGTCSFPVRYLGHVEVEESRGMHVCEDAVKKLKAMGRKSVKSVLWVSADGLRVVDDKTKDLLVDQTIEKVSFCAPDRNLDKAFSYICRDGTTRRWICHCFLALKDSGERLSHAVGCAFAACLERKQRREKECGVTAAFDASRTSFAREGSFRLSGGGRPAEREAPDKKKAEAAAAPTVAPGPAQPGHVSPTPATTSPGEKGEAGTPVAAGTTAAAIPRRHAPLEQLVRQGSFRGFPALSQKNSPFKRQLSLRLNELPSTLQRRTDFQVKGTVPEMEPPGAGDSDSINALCTQISSSFASAGAPAPGPPPATTGTSAWGEPSVPPAAAFQPGHKRTPSEAERWLEEVSQVAKAQQQQQQQQQQQQQQQQQQQQAASVAPVPTMPPALQPFPAPVGPFDAAPAQVAVFLPPPHMQPPFVPAYPGLGYPPMPRVPVVGITPSQMVANAFCSAAQLQPQPATLLGKAGAFPPPAIPSAPGSQARPRPNGAPWPPEPAPAPAPELDPFEAQWAALEGKATVEKPSNPFSGDLQKTFEIEL
B5: NUMB (protein, UniProt P49757 1-651)
chain: MNKLRQSFRRKKDVYVPEASRPHQWQTDEEGVRTGKCSFPVKYLGHVEVDESRGMHICEDAVKRLKAERKFFKGFFGKTGKKAVKAVLWVSADGLRVVDEKTKDLIVDQTIEKVSFCAPDRNFDRAFSYICRDGTTRRWICHCFMAVKDTGERLSHAVGCAFAACLERKQKREKECGVTATFDASRTTFTREGSFRVTTATEQAEREEIMKQMQDAKKAETDKIVVGSSVAPGNTAPSPSSPTSPTSDATTSLEMNNPHAIPRRHAPIEQLARQGSFRGFPALSQKMSPFKRQLSLRINELPSTMQRKTDFPIKNAVPEVEGEAESISSLCSQITNAFSTPEDPFSSAPMTKPVTVVAPQSPTFQANGTDSAFHVLAKPAHTALAPVAMPVRETNPWAHAPDAANKEIAATCSGTEWGQSSGAASPGLFQAGHRRTPSEADRWLEEVSKSVRAQQPQASAAPLQPVLQPPPPTAISQPASPFQGNAFLTSQPVPVGVVPALQPAFVPAQSYPVANGMPYPAPNVPVVGITPSQMVANVFGTAGHPQAAHPHQSPSLVRQQTFPHYEASSATTSPFFKPPAQHLNGSAAFNGVDDGRLASADRHTEVPTGTCPVDPFEAQWAALENKSKQRTNPSPTNPFSSDLQKTFEIEL

By UniProt entry, the sequences of proteins in these tests, tags left out.
UniProt O43707: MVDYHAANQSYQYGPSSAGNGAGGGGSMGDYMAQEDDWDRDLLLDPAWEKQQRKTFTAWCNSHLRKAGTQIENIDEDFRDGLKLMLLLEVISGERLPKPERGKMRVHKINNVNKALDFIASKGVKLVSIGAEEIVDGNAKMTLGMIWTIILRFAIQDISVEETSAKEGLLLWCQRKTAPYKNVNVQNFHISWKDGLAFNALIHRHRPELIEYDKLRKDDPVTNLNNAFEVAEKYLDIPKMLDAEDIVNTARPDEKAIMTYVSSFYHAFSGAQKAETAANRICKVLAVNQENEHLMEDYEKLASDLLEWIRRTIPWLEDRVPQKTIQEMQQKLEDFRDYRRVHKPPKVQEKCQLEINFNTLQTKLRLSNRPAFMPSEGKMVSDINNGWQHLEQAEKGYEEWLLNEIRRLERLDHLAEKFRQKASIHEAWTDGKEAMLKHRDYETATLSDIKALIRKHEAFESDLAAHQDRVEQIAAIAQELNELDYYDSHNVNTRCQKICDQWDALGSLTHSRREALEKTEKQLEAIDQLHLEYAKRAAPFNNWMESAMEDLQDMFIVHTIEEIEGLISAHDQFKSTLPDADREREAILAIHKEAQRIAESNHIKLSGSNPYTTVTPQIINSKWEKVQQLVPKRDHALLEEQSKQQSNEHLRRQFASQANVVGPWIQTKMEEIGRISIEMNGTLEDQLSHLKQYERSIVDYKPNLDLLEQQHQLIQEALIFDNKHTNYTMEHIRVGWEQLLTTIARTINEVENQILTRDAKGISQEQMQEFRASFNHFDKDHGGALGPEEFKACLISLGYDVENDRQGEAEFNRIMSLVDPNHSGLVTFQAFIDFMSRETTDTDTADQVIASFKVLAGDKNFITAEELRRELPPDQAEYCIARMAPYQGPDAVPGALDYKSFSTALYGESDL
UniProt P10415: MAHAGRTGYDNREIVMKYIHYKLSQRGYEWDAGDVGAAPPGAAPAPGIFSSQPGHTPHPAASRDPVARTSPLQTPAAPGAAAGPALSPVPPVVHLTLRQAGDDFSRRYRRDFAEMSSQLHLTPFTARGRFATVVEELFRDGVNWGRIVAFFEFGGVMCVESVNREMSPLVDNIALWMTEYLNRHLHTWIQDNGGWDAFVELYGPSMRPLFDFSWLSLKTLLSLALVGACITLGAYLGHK
UniProt O00571: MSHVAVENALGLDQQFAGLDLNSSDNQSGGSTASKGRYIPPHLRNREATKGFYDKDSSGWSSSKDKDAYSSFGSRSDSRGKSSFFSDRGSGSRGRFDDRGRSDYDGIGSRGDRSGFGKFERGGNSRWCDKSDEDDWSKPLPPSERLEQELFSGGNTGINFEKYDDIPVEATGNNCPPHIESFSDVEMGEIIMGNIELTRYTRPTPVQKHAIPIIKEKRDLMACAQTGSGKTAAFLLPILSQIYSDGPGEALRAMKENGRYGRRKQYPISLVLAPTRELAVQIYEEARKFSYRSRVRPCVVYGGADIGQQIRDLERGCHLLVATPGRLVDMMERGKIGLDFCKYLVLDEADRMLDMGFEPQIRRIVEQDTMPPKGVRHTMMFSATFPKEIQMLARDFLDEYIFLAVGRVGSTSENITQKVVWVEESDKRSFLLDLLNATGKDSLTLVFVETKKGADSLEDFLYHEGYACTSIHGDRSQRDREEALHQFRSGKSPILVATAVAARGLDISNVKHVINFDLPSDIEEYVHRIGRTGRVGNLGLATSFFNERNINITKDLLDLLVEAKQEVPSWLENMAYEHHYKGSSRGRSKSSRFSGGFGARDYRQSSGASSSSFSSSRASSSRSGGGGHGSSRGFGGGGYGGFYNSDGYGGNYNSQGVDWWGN
UniProt O00410: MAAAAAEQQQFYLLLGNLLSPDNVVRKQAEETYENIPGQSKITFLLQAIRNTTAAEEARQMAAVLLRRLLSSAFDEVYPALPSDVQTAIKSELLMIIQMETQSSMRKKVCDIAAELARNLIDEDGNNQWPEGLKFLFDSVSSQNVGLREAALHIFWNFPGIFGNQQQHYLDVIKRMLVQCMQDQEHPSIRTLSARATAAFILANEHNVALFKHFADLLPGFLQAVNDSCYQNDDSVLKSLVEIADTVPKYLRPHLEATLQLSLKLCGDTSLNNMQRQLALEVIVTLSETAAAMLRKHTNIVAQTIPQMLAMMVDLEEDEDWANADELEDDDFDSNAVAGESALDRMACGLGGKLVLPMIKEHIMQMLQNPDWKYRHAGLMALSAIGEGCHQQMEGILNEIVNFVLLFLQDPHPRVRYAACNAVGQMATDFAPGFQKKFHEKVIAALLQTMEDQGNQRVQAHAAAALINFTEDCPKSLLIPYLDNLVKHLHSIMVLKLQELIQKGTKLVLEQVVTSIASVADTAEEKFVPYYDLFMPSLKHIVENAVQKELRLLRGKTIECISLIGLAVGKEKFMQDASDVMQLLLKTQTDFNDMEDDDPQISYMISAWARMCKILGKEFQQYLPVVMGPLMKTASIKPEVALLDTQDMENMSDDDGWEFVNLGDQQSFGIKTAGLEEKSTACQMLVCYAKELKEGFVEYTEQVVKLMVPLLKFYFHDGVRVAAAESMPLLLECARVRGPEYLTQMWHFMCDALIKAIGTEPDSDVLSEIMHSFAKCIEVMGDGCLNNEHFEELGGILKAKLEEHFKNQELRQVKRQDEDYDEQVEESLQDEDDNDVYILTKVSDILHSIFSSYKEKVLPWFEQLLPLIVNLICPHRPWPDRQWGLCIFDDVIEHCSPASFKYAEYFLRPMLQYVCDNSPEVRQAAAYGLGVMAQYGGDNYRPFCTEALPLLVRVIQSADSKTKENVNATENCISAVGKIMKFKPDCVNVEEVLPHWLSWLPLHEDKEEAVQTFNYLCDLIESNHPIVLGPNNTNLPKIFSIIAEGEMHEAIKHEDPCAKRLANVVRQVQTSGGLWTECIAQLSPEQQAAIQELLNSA
UniProt O95251: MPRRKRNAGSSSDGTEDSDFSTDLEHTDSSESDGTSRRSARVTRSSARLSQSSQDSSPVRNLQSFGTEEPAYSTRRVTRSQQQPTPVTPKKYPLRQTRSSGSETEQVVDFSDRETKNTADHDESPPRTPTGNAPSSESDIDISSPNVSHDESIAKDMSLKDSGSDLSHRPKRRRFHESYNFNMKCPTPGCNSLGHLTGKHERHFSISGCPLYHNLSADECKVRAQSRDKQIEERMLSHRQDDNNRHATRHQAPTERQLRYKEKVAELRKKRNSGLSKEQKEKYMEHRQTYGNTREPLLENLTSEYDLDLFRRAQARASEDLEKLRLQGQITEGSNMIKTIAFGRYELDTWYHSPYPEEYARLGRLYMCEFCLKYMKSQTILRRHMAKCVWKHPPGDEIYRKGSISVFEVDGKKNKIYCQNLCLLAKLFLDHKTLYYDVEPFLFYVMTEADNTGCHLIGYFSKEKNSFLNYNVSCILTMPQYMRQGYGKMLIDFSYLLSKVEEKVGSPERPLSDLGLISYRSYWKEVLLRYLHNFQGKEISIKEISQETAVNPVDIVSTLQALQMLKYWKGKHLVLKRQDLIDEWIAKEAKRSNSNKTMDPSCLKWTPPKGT
UniProt O00629: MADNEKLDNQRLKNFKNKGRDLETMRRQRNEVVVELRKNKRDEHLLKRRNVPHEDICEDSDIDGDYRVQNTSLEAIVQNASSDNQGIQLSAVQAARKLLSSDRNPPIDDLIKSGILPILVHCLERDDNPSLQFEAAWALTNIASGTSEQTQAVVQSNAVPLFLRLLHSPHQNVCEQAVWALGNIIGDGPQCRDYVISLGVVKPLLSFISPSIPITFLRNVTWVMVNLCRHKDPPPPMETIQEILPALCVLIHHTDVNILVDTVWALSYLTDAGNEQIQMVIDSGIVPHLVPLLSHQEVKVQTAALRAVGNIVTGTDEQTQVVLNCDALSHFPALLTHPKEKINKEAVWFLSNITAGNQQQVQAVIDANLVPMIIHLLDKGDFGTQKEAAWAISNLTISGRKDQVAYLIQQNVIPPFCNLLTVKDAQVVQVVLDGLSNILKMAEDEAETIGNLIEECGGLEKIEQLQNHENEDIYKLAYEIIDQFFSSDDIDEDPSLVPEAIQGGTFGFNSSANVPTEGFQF
UniProt P06748: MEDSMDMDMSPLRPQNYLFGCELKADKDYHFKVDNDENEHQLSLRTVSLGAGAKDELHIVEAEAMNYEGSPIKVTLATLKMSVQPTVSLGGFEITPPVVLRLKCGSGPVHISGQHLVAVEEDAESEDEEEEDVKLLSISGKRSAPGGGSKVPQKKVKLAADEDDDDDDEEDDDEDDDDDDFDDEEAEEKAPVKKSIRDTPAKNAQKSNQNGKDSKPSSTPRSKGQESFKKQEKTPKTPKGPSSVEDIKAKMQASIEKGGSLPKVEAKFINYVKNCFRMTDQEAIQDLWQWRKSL
UniProt O43148: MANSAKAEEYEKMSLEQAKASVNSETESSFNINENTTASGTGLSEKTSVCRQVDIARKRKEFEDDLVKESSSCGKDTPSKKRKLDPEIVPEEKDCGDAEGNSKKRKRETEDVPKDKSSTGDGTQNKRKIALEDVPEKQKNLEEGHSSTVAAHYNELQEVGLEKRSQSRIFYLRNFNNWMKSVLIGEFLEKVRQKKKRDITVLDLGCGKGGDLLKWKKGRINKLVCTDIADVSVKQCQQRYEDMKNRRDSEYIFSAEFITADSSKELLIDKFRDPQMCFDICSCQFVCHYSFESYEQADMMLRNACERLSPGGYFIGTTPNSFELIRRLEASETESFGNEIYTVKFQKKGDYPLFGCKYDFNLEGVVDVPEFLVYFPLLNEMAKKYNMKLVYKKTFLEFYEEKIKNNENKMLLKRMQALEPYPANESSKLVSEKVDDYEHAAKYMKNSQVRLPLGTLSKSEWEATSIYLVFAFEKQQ
UniProt O00161: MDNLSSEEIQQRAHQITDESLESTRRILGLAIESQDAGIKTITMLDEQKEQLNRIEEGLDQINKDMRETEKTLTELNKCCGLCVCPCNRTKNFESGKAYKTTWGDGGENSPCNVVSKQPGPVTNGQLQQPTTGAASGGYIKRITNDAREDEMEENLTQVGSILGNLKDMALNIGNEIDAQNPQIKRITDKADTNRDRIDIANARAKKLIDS
UniProt O60493: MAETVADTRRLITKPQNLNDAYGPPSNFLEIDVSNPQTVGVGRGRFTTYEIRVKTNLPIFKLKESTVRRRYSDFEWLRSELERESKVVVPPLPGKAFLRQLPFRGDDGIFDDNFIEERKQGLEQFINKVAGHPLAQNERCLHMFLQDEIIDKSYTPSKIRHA
UniProt Q86WV6: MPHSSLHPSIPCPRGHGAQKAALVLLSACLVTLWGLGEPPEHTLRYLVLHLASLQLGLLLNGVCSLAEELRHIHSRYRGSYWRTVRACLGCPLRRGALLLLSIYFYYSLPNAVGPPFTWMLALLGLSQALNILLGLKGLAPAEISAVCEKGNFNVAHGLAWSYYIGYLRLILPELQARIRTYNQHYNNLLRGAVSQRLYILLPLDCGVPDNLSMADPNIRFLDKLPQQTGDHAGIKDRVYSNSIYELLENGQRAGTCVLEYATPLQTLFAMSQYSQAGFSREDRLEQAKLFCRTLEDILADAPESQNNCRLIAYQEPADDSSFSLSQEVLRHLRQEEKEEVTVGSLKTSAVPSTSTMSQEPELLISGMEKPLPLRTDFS
UniProt O75410: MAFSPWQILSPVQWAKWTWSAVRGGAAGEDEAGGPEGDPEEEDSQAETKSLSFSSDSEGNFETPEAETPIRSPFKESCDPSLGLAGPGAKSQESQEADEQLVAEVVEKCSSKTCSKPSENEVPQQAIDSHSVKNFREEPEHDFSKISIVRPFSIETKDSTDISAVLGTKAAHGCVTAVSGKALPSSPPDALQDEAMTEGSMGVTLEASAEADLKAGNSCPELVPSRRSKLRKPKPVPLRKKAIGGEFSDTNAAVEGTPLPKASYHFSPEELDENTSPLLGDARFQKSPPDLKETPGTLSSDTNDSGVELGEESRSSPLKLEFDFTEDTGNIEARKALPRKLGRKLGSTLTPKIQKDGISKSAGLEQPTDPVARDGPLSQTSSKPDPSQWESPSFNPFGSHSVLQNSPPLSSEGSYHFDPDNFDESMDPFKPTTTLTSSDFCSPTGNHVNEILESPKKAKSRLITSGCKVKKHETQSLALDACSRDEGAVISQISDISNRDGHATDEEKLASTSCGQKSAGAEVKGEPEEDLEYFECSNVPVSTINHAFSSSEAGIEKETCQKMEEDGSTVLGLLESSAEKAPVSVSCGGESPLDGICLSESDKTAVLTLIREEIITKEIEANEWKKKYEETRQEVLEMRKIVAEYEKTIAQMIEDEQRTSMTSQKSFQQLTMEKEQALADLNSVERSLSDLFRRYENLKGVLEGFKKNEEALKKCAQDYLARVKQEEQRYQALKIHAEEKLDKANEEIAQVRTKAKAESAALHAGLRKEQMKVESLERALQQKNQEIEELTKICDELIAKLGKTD

Molecular target: N-terminal Kv1.3-TurboID (V5-TurboID-Kv1.3 fusion) (human) (UniProt P22001)
Test: proximity labelling; TurboID fused to Kv1.3, stably expressed in Jurkat T-cells; 200 μM biotin for 1 h; lysis in 8 M urea; biotinylated proteins enriched on streptavidin magnetic beads; label-free quantitative MS against untransduced Jurkat T-cells or between lines (>4-fold, p<0.05; n=3)

binding, binds:
ACTN4 (from UniProt O43707 1-911), BCL2 (from UniProt P10415 1-239), DDX3X (from UniProt O00571 1-662), IMPDH2 (from UniProt P12268 1-514), IPO5 (from UniProt O00410 1-1097), KAT7 (from UniProt O95251 1-611), KPNA4 (from UniProt O00629 1-521), NPM1 (from UniProt P06748 1-294), RNMT (from UniProt O43148 1-476), SNAP23 (from UniProt O00161 1-211), SNX3 (from UniProt O60493 1-162), STING1 (from UniProt Q86WV6 1-379), TACC1 (from UniProt O75410 1-805)

Molecular target: C-terminal Kv1.3-TurboID (Kv1.3-V5-TurboID fusion) (human) (UniProt P22001)
Test: as above

binding, binds:
B1, B2, B3, B4, B5

From paper PMC12989817
